Measurements: patent US20210277003A1, “OGA INHIBITOR COMPOUNDS” (Janssen Pharmaceutica NV, priority 2018, published 2021)
The structures given here were assigned with low confidence; some may be wrong.

By UniProt entry, the sequences of proteins in these tests, tags left out.
UniProt O60502, whole entry: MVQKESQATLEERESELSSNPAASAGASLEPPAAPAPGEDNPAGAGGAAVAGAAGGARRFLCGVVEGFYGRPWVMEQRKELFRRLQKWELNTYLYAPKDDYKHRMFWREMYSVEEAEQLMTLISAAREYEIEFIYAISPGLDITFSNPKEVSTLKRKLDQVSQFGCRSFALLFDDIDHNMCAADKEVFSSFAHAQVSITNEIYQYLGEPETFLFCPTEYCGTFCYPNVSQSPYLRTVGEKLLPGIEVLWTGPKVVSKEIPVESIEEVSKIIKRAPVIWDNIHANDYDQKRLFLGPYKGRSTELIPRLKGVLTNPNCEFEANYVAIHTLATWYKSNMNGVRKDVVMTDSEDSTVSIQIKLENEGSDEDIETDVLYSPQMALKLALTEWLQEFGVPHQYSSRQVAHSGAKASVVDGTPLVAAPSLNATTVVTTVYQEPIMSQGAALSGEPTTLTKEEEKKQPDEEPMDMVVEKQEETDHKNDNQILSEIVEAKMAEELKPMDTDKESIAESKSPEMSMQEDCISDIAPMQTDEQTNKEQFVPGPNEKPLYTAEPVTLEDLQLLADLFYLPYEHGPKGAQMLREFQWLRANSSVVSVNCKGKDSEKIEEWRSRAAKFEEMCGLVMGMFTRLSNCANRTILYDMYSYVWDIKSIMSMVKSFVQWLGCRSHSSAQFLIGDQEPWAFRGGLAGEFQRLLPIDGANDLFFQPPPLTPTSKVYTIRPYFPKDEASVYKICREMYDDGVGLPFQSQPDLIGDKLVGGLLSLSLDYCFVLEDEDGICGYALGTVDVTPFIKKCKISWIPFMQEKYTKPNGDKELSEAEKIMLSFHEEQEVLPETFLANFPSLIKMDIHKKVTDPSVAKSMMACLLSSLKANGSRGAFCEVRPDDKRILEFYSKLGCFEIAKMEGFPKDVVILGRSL

Biological target: recombinant human Meningioma Expressed Antigen 5 (MGEA5), also referred to as O-GlcNAcase (OGA) (Homo sapiens, UniProt O60502)
Experiment: OGA biochemical assay: inhibition of hydrolysis of fluorescein mono-ß-D-N-Acetyl-Glucosamine (FM-GlcNAc), fluorescence readout
Conditions: FM-GlcNAc substrate
Excerpt: The assay is based on the inhibition of the hydrolysis of fluorescein mono-ß-D-N-Acetyl-Glucosamine (FM-GlcNAc) (Mariappa et al. 2015, Biochem J 470:255) by the recombinant human Meningioma Expressed Antigen 5 (MGEA5), also referred to as O-GlcNAcase (OGA). The hydrolysis FM-GlcNAc (Marker Gene technologies, cat #M1485) results in the formation of ß-D-N-glucosamineacetate and fluorescein. The fluorescence of the latter can be measured at excitation wavelength 485 nm and emission wavelength 538 nm. An increase in enzyme activity results in an increase in fluorescence signal. Full length OGA enzyme was purchased at OnGene (cat #TP322411). The enzyme was stored in 25 mM Tris.HCl, pH 7.3, 100 mM glycine, 10% glycerol at −20° C. Thiamet G and GlcNAcStatin were tested as reference compounds (Yuzwa et al. 2008 Nature Chemical Biology 4:483; Yuzwa et al. 2012 Nature Chemical Biology 8:393). The assay was performed in 200 mM Citrate/phosphate buffer supplemented with 0.005% Tween-20. 35.6 g Na2HPO4 2 H2O (Sigma, #C0759) were dissolved in 1 L water to obtain a 200 mM solution. […] Fluorescence was quantified in the Thermo Scientific Fluoroskan Ascent or the PerkinElmer EnVision with excitation wavelength 485 nm and emission wavelength 538 nm. […]

SMILES: Fc1cc(Cl)c(Nc2nccc3c2ccn3-c2cc[nH]n2)c(Cl)c1
- Enzymatic Emax (%): 95.09%
- Enzymatic hOGA; pIC50: 6.19
